{"sequences": {"note": "Sequences of proteins named here, by UniProt entry; tags and fusion partners are left off.", "UniProt Q09472": "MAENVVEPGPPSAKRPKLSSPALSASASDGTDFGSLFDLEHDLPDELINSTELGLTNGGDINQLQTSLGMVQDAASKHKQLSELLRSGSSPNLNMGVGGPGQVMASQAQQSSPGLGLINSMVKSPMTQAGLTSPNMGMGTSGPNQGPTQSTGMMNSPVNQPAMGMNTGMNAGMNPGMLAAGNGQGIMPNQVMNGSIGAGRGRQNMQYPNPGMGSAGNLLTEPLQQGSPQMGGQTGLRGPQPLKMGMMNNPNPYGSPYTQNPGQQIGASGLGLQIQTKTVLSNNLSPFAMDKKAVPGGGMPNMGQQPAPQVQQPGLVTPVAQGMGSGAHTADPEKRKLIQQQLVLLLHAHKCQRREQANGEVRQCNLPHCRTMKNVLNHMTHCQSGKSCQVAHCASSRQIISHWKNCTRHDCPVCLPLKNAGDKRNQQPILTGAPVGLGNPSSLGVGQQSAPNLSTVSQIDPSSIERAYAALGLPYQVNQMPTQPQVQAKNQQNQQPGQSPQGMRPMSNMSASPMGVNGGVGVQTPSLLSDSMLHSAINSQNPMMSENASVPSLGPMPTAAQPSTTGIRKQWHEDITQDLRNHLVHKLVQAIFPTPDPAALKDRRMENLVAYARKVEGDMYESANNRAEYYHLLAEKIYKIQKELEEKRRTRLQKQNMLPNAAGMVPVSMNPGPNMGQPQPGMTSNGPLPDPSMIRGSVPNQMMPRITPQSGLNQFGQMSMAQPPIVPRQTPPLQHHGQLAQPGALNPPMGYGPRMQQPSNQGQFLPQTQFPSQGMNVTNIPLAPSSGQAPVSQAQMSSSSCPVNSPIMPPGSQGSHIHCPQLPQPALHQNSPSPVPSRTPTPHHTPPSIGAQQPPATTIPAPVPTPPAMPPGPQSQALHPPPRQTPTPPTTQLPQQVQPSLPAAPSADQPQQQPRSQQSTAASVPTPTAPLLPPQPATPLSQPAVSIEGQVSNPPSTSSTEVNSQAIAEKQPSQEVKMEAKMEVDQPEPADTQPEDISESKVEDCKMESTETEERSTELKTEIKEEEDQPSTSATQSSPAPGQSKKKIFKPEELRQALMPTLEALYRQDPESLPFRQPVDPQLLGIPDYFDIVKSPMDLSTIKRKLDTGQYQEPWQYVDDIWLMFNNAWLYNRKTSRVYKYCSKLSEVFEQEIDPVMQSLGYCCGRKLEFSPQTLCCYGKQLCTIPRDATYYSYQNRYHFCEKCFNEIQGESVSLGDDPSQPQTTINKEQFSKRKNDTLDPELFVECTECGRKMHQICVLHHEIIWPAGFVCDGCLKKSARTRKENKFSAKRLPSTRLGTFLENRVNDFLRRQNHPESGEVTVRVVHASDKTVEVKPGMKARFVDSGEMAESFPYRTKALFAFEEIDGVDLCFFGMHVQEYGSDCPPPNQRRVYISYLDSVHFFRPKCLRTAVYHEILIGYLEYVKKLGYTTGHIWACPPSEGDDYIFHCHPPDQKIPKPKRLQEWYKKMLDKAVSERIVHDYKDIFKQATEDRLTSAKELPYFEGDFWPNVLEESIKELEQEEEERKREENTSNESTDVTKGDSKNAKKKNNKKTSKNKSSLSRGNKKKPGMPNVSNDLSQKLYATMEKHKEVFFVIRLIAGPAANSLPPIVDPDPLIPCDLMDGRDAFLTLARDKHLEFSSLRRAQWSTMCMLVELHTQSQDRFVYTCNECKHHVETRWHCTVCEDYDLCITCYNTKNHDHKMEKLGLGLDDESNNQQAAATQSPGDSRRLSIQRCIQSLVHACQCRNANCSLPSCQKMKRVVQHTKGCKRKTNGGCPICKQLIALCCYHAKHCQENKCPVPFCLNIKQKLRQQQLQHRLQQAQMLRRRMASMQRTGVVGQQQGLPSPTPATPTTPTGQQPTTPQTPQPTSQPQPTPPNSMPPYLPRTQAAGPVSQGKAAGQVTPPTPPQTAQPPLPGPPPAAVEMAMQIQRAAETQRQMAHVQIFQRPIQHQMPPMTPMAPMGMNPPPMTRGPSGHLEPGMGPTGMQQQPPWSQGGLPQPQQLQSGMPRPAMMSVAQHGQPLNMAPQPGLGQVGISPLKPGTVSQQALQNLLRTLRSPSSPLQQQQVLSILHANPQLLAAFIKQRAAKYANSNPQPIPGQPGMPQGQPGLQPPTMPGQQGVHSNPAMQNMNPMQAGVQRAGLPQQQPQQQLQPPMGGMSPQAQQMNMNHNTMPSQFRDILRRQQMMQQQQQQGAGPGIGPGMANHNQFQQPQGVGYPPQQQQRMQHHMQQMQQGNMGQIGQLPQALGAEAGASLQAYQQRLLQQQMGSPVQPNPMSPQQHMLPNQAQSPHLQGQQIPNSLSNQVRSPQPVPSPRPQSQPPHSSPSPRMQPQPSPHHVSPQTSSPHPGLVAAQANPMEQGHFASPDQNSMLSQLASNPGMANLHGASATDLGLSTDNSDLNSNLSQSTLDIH"}, "source": "paper PMC3509033", "binders": {"B1": {"name": "activating transcription factor 2 (protein, UniProt P15336 1-505)", "chain": "MKFKLHVNSARQYKDLWNMSDDKPFLCTAPGCGQRFTNEDHLAVHKHKHEMTLKFGPARNDSVIVADQTPTPTRFLKNCEEVGLFNELASPFENEFKKASEDDIKKMPLDLSPLATPIIRSKIEEPSVVETTHQDSPLPHPESTTSDEKEVPLAQTAQPTSAIVRPASLQVPNVLLTSSDSSVIIQQAVPSPTSSTVITQAPSSNRPIVPVPGPFPLLLHLPNGQTMPVAIPASITSSNVHVPAAVPLVRPVTMVPSVPGIPGPSSPQPVQSEAKMRLKAALTQQHPPVTNGDTVKGHGSGLVRTQSEESRPQSLQQPATSTTETPASPAHTTPQTQSTSGRRRRAANEDPDEKRRKFLERNRAAASRCRQKRKVWVQSLEKKAEDLSSLNGQLQSEVTLLRNEVAQLKQLLLAHKDCPVTAMQKKSGYHTADKDDSSEDISVPSSPHTEAIQHSSVSTSNGVSSTSKAEAVATSVLTQMADQSTEPALSQIVMAPSSQSQPSGS"}}, "target": "p300 (human (endogenous in HRMCs)) (UniProt Q09472)", "test": "co-IP; HRMCs treated with 10 ug/ml LPS for the indicated times; lysates with 1 mg of protein incubated with 2 ug anti-c-Src or anti-p300 antibody at 4°C for 24 h, then protein A-agarose beads; washed thrice with lysis buffer without Triton X-100; Western blot with anti-TLR4, anti-p47phox, anti-c-Src, anti-p300 or anti-ATF2 antibody", "note": "Results are given in words; binding and its absence hold for the method and conditions named. In cells and extracts the contact can be indirect. Some binding calls cover weakened binding; strength is not graded here."}
{"binder": "B1", "values": [{"measurement": "binding", "result": "binds"}]}
